Experimental data from article PMC7948415.
These are yes or no findings as the source states them, for the method shown. Binding calls can cover weak binding; strength is not graded here.

Legend:
[1] = molecular target: alternative C3 convertase, C3bBb (human); test: SEC; C3b, factor B, factor D and albicin mixed about 1:2:1:5, 15 min at room temperature, Superdex 200 10/300; fractions on silver-stained SDS-PAGE; buffer HBS/MgCl2 (methods) or HBS with 5 mM NiCl2; both purified
[2] = molecular target: alternative C3 convertase, C3bBb (human); test: SPR; Biacore T100; properdin amine-coupled to a CM5 chip (5000 RU); C3b (20 μg/ml), factor B (20 μg/ml) and factor D (2 μg/ml) in HBS/MgCl2 injected at 30 μl/min for 120 s without or with SG7.AF, albicin or anophensin (Fig. 9C: 56.8 nM C3b, 107.5 nM factor B, 41.7 nM factor D, inhibitors 1 μM); dissociation at 1 μM inhibitor fitted to a double exponential decay; both purified

Binder | binding [1] | binding [2]
albicin (protein, UniProt A0A1Y9G8D0 27-142) ANNHIRTVLKLFRTIDLDDSKKSFYLTAAKYGIQTQLREPIIRIVGGYLPSTKLSEACVKNMISEVYEIEGDFYSKFSYACEDHAPYSVECLEDARDDYLTQLVELFKETKKCLRE | binds | binds
SG7.AF (protein, UniProt C0HMB5 1-119) ARKHVQELLKTFRRIDFDETRKSVYLQSAKFGVQSQLREPLTKKVLNYWDDVKLSKTCLDRMVTKVNDVKETFYAGFSYACESHNQYSVDCLEAAKPSYLTALGEIRGETEKCLTTRLK |  | binds
